Assay results published in US20190374627A1, “TARGET PEPTIDES FOR CANCER THERAPY AND DIAGNOSTICS” (priority 2016, published 2019).
Entries after “also recorded” stand apart in the source; their conditions may differ.

Assays:
[1] = test system: leukemia; assay: Presence of the phosphopeptide in previously analyzed leukemia samples; set-up: key: The presence of phosphopeptides in previously analyzed samples including leukemia, colorectal cancer, melanoma, ovarian cancer, breast cancer, and esophageal cancer is indicated by ✓
[2] = test system: colorectal cancer; assay: Presence of the phosphopeptide in previously analyzed colorectal cancer samples; set-up: key: The presence of phosphopeptides in previously analyzed samples including leukemia, colorectal cancer, melanoma, ovarian cancer, breast cancer, and esophageal cancer is indicated by ✓
[3] = test system: melanoma; assay: Presence of the phosphopeptide in previously analyzed melanoma samples; set-up: key: The presence of phosphopeptides in previously analyzed samples including leukemia, colorectal cancer, melanoma, ovarian cancer, breast cancer, and esophageal cancer is indicated by ✓
[4] = test system: HCC tumor tissue, adjacent liver tissue, HepG2 cells; assay: Identification of MHC class I-bound phosphopeptides by W6/32 immunoprecipitation, IMAC and HPLC-ESI-MS/MS; set-up: species or system human; settings: for Found on other cancers: other malignancies on which the MHC-I-pP was also identified; for Copies/cell: presentation of HCC-associated HLA-A*0201-restricted MHC-I-pP per cell; for Found on: sample (HCC tumor T, adjacent liver N, HepG2) on which the phosphopeptide was identified

Substance	Leukemia [1]	Colorectal [2]	Melanoma [3]	Found on other cancers [4]	Copies/cell [4]	Found on [4]
316 (RILSGVVTK; (4)...(4) The amino acid at this position is optionally phosphorylated; listed as Homo sapiens) [compound 316]	✓	✓	✓	–	–	–
322 (RLSSPISKR; (4)...(4) The amino acid at this position is optionally phosphorylated; listed as Homo sapiens) [compound 322]	✓	✓	✓	–	–	–
334 (RVYSPYNHR; (4)...(4) The amino acid at this position is optionally phosphorylated; listed as Homo sapiens) [compound 334]	✓	✓	✓	–	–	–
339 (AENSPTRQQF; (4)...(4) The amino acid at this position is optionally phosphorylated; listed as Homo sapiens) [compound 339]	✓	✓	✓	–	–	–
ALDsGASLLHL: RIPK4 phosphopeptide, HLA-A*0201 (ALDSGASLLHL; phosphoserine; (4)...(4) The amino acid at this position is optionally phosphorylated; listed as Homo sapiens)	–	–	–	Ovarian Ca, Hematological Ca, Breast	0.1 - 0.4 Copies/cell	–
AVVsPPALHNA: BRD4 phosphopeptide, HLA-A*0201 (AVVSPPALHNA; phosphoserine; (5)...(5) The amino acid at this position is optionally phosphorylated; listed as Homo sapiens)	–	–	–	Ovarian Ca, Hematological Ca.	0.5 - 0.7 Copies/cell	LL981; also recorded: HepG2
FLDtPIAKV: NKD1 phosphopeptide, HLA-A*0201 (FLDTPIAKV; phosphothreonine; (4)...(4) The amino acid at this position is optionally phosphorylated; listed as Homo sapiens)	–	–	–	CRC.	0.1 - 0.15 Copies/cell	–
GLLDsPTSI: ZFP36L1 phosphopeptide, HLA-A*0201 (GLLDSPTSI; phosphoserine; (5)...(5) The amino acid at this position is optionally phosphorylated; listed as Homo sapiens)	–	–	–	–	–	LL370T
GRsSPPPGY (GRSSPPPGY; phosphoserine; (3)...(3) The amino acid at this position is optionally phosphorylated; listed as Homo sapiens)	–	–	–	–	–	LL981T
ITQGtPLKY: NCOR2 phosphopeptide, HLA-A*01 (ITQGTPLKY; phosphothreonine; (5)...(5) The amino acid at this position is optionally phosphorylated; listed as Homo sapiens)	–	–	–	–	–	LL981T
KAFsPVRSV: ID2 phosphopeptide, HLA-A*0201 (KAFSPVRSV; phosphoserine; (4)...(4) The amino acid at this position is optionally phosphorylated; listed as Homo sapiens)	–	–	–	Ovarian Ca, CRC, OEAC	0.1 - 81 Copies/cell	–
KLFPDtPLAL: ILF3 phosphopeptide, HLA-A*0201 (KLFPDTPLAL; phosphothreonine; (6)...(6) The amino acid at this position is optionally phosphorylated; listed as Homo sapiens)	–	–	–	Ovarian Ca, CRC, Melanoma,	0.1 - 0.3 Copies/cell	–
KLPsPAPARK (KLPSPAPARK; phosphoserine; (4)...(4) The amino acid at this position is optionally phosphorylated; listed as Homo sapiens)	–	–	–	–	–	LL4857N + T
